Reference: PubChem BioAssay AID1347426 (Functional Genomics Laboratory (NCATS/FGL), 2020)
Out of some 31,000 sequences screened, about 1,400 (4.5%) were called active.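 Rule for the calls: active = median seed-adjusted z-score above 1 or below -1; inactive = the rest.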 This is one part of the list.

assay: Novel Modifiers of Survival Motor Neuron (SMN) Protein: Gene Identification via Genome-wide siRNA Screen; details: HEK293T SMN2-luciferase reporter, siRNA knockdown, 72 h; actives lie on both sides;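 note: luminescence tracks full-length SMN protein made from the SMN2 reporter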
Method in brief: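 Genome-wide siRNA screen (10418 genes, 3 siRNAs each, 1 pmol per well) by reverse transfection in HEK293T cells stably carrying an SMN2-luciferase reporter; luminescence after 72 hours, normalized to negative-control siRNA, log10-transformed, MAD-scored.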

Row | Sequence | median seed-adjusted z-score
1 | GCACCACCGCUUCUAUGCATT against GPR27 | inactive: -0.678
2 | AGCUUUCUUGAGCACCUGATT against LRRC32 | inactive: 0.0464
3 | GUUCAUCCCUUAUUCGACATT against ZNF215 | inactive: 0.485
4 | CUGAAUCCCUCUAUAGUGATT against NR1D1 | inactive: -0.301
5 | GGAUGGAACCGAUCACGAATT against PHF16 | inactive: 0
6 | GAGACUUACUCUUCGAAGATT against DOCK8 | inactive: 0.243
7 | GUACUGGUAUAACUAUGAATT against SLC25A40 | inactive: 0.414
8 | CAAGAUAUAUAUACGCCUATT against NPY1R | inactive: 0.76
9 | GCAAACUCCUCAAUAUGAUTT against XCR1 | inactive: -0.292
10 | GGAUCCUAAUGACAAAGUUTT against CRHR2 | inactive: -0.211
11 | CAAUAAGACUGAGUUAUUATT against ETNK1 | inactive: 0.299
12 | GAAAUACCCUCAUGUCCAATT against CYP2S1 | inactive: -0.196
13 | GCCUUAAGAUCUCGGCGUATT against PTPRK | inactive: 0
14 | CCAUCAUACAGUCUCCUUATT against SNTB1 | inactive: 0.488
15 | GCUCUGCAAGGAUCGAUUUTT against AMFR | inactive: -0.15
16 | CAUGGUACCUGGAUUCAGATT against MAP3K11 | inactive: 0.773
17 | CGUGGAAUACUAGAGCAAATT against ACTL6A | active: 1.11
18 | GAAGAGAUAGAGAUAGUAATT against CARD17 | inactive: 0.301
19 | GAAGAUUCGAAAUAAAAGATT against CREB3 | inactive: 0.0509
20 | GGAGACCUGCGAUUACUUUTT against BARX2 | inactive: -0.206
21 | GGAGAAAUCCAUCAACAAATT against PHYHD1 | inactive: -0.37
22 | CCCUCGCUUCAGUACCUUATT against GCLC | inactive: -0.21
23 | AAACUCACCUUAAUAAAGATT against UBL5 | inactive: -0.706

Row | Sequence | median seed-adjusted z-score
24 | GGUGGAUGGUAAAAACGAATT against ADAM17 | inactive: 0
25 | GGUGAUUUAUCUCAUGAGATT against SULT2A1 | inactive: -0.123
26 | AGUUCAAGCGGAUCCUGAATT against PDE4C | inactive: 0.565
27 | AGGAUACAAUGAUUGGUGATT against BPIL3 | inactive: -0.0506
28 | AGAGCACCAGAAGACACAATT against GJC3 | inactive: -0.137
29 | GAGCUUUACUGAUUGACGATT against PUM2 | inactive: -0.129
30 | CGAUGAAGUUGACAGGCGATT against GIT2 | inactive: 0.338
31 | CCAACAAGGAUGAUAUGAATT against MTCH1 | inactive: 0
32 | CCAUAUCAAGUGUGACAAATT against ZNF577 | inactive: -0.756
33 | CAUCAAGCCUCAUCUAAUATT against CHD1 | active: -1.03
34 | CUGUCAGGCUAAAUCCAGATT against IFIT1L | inactive: 0.166
35 | CUGCUGUUGUUACUACCCATT against USF1 | inactive: 0.16
36 | AGAAAUGAUGGAUAUUUGATT against GSTA1 | inactive: 0.27
37 | GGAGGUCAGGUAUAUGGAATT against PSMB9 | inactive: -0.788
38 | CAGUGAUGGUUAAGAACGATT against A2M | active: -1.96
39 | GAAGCUUGAGGAACACGAATT against GOLGB1 | inactive: 0.0851
40 | GGAUGACAAUCAAGGAAAUTT against SERPINB7 | inactive: 0.584
41 | GAAGUGACCUUCUCCUGGATT against PRRX2 | inactive: -0.141
42 | CACUAAAUGUGACUCCUGATT against TTC5 | inactive: -0.296
43 | ACUUCAACAUGACCAAAAATT against PPARD | inactive: 0.0283
44 | CUGUAUACUUGACAAACGATT against NRK | inactive: 0.0687
45 | GCCUGUCAAUCAGAAUGCATT against SIX4 | inactive: 0.0462
46 | GAUGAUAGCCAAACCCUCATT against ZNF626 | inactive: 0.185

5 consecutive entries out of the list so far:
Row | Sequence | median seed-adjusted z-score
40 | GGAUGACAAUCAAGGAAAUTT against SERPINB7 | inactive: 0.584
41 | GAAGUGACCUUCUCCUGGATT against PRRX2 | inactive: -0.141
42 | CACUAAAUGUGACUCCUGATT against TTC5 | inactive: -0.296
43 | ACUUCAACAUGACCAAAAATT against PPARD | inactive: 0.0283
44 | CUGUAUACUUGACAAACGATT against NRK | inactive: 0.0687

Next results.

Row | Sequence | median seed-adjusted z-score
47 | CUCGAUGACUUGUACUUGATT against DCPS | inactive: 0.669
48 | GACUCGUUUUGUACAGUAUTT against TLK2 | inactive: 0.347
49 | CAACUGGACAGACAACGCUTT against CD82 | inactive: 0.102
50 | GCGAGUUUGUCACUGCUUUTT against PDIA4 | inactive: -0.499
51 | GCGGGAAUCUUAACUCGGATT against CDH6 | inactive: 0
52 | AGAUCGUUAUCCUACUGGATT against LINGO1 | inactive: -0.443
53 | CCACCACUAUGGUUCCCACTT against KCNG4 | inactive: 0.666
54 | GGAAAGGUUGUAUACGUGATT against SLC6A11 | inactive: -0.0369
55 | ACAUCGAAACCAACCAUAATT against IDH3G | inactive: -0.426
56 | GACGGACAGUGGUAUGGUUTT against KDR | inactive: 0.0728
57 | CGAACGAGCUAUCACAGAATT against TFB1M | inactive: 0.172
58 | CCGAGGUGCUAGUACGAAATT against GTPBP2 | inactive: -0.166
59 | GCAACUAUCCCGACAUGCATT against GRIN2D | inactive: -0.135
60 | GGAAUAGCUUUGCGAAAAATT against FABP5 | inactive: -0.258
61 | GCACCGACCCUAGCAUCAUTT against E2F2 | inactive: -0.382
62 | GUCCGUCGCUAAUUAUGCATT against GAK | inactive: 0.488
63 | GCAGCUGAGUGUUCGACUUTT against METTL7A | inactive: 0.278
64 | CGAAUGAUAUCAUCAACAUTT against TDRD1 | inactive: -0.164
65 | GGAUGGAGGUUGUGCAGCUTT against ITPK1 | inactive: 0.0575
66 | GUACGUGGAUGUGCUCAAATT against APOA1 | inactive: -0.239
67 | AGUUCCUGAUGUCAACCAATT against CYP46A1 | inactive: -0.00752
68 | CCUCGGACCUCUCAACAAATT against AAK1 | inactive: 0.27
69 | CAAGUUAUCUCCUCUGCUATT against FXYD5 | inactive: -0.0885
